Data reported in paper PMC5449187.
Results are given in words; binding and its absence hold for the method and conditions named. Some binding calls cover weakened binding; strength is not graded here.

Chains of the proteins cited; added tags and fusions are not shown. Residues count along the entry.
UniProt O75460, residues 29-977: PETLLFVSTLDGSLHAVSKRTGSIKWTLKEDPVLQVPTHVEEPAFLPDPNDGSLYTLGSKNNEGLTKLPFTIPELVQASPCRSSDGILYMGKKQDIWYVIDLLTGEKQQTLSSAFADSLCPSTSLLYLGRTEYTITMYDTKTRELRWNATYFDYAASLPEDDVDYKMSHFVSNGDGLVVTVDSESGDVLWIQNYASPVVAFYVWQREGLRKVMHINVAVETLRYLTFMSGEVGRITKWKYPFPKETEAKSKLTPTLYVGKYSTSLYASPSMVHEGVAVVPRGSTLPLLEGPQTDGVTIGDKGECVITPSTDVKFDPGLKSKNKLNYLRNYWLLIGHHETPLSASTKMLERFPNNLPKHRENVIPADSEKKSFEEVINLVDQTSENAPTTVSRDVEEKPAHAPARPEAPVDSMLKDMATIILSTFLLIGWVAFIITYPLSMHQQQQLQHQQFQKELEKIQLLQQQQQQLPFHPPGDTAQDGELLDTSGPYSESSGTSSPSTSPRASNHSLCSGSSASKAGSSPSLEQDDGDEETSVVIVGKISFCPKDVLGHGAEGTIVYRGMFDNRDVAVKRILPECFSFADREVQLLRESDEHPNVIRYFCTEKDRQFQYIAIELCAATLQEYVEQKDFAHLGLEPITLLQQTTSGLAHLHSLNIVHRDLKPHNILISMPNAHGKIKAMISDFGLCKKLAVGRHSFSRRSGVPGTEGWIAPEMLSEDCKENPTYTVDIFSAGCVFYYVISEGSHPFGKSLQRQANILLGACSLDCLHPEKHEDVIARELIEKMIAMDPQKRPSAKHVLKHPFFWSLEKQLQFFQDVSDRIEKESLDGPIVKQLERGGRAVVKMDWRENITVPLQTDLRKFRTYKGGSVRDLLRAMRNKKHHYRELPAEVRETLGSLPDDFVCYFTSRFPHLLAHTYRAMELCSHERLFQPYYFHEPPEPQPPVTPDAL
UniProt Q9UGP8: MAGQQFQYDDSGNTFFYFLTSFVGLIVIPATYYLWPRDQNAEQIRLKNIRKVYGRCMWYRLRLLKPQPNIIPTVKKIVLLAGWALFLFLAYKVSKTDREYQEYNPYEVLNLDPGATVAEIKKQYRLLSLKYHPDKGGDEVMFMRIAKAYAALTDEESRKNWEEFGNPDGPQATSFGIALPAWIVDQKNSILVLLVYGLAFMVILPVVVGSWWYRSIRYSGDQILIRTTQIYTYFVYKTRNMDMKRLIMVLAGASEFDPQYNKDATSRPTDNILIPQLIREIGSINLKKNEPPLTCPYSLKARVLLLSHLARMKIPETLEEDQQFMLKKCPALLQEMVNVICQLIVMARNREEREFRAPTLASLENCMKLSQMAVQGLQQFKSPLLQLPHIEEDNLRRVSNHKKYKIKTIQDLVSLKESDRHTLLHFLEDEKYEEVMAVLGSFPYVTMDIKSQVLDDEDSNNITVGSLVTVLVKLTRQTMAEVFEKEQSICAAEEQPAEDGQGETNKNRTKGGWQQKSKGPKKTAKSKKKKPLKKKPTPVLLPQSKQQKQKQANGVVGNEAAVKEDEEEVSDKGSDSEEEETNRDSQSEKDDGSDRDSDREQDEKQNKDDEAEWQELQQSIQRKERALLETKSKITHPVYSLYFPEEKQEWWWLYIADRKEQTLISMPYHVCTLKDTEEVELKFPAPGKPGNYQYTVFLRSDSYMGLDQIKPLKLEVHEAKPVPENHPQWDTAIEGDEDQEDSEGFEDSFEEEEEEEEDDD

Biological target: 2xStrep IRE1α (Prl-His-2xstrep-IRE1α-FLAG) (UniProt O75460)
Assay: affinity co-purification (Strep-TactinXT, then SP Sepharose); 2xStrep IRE1α variants purified from digitonin-lysed HEK293 microsomes, eluted with biotin, then ion exchange; Coomassie-stained gel and standard immunoblots (Sec61α, BiP)

binding: binds
Substance: Sec63 (from UniProt Q9UGP8 1-760)
